PubChem BioAssay AID1259405 – NCATS, 2018

- Test: 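Silenced genes that increase secreted GFP made by CHO cells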 (primary screen)
- System: Chinese hamster CHO-K1 ovary cells with stable secreted eGFP expression
- Knock-down reagent: single siRNA against mouse genes, 0.8 pmol siRNA per well (2 µl of 400 nM stock)
- Timing: 3 days
- Detection: 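Per-well intracellular GFP measured by laser scanning cytometry, plus viability from ATP luminescence, each relative to plate median of non-targeting control wells, in %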
- Scale: GFP, % of control: higher = more GFP per well, higher productivity; viability (ATP), % of control: higher = more viable cells (more ATP)
- Hit rule: 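Called active when intracellular GFP, relative to negative control, is at or above 120%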
The whole screen tested about 50,000 reagents; this is a part drawn at random. About 4,000 of all reagents (8%) were called active. 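Mouse siRNA library applied to hamster cells; one well for each siRNA.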 Reagents against one gene are numbered here.

| gene | reagent no. | GFP, % of control | viability (ATP), % of control | call |
| --- | --- | --- | --- | --- |
| Clic3 | 1 | 37.3 | 58.2 | inactive |
| Clic3 | 2 | 66.1 | 71 | inactive |
| Clic3 | 3 | 89.1 | 103 | inactive |
| Acer1 | 1 | 113 | 99 | inactive |
| Acer1 | 2 | 125 | 65.8 | active |
| Acer1 | 3 | 46 | 68.4 | inactive |
| Pnlip | 1 | 78.5 | 83.6 | inactive |
| Pnlip | 2 | 64.6 | 70.6 | inactive |
| Pnlip | 3 | 76.5 | 67.3 | inactive |
| Klhdc2 | 1 | 84.8 | 75.6 | inactive |
| Klhdc2 | 2 | 68 | 75.3 | inactive |
| Klhdc2 | 3 | 54.6 | 41.7 | inactive |
| Shmt1 | 1 | 98.8 | 57.1 | inactive |
| Shmt1 | 2 | 63 | 31.6 | inactive |
| Shmt1 | 3 | 68.6 | 56.5 | inactive |
| Vmn1r26 | 1 | 63.5 | 62.8 | inactive |
| Vmn1r26 | 2 | 99.7 | 92.8 | inactive |
| Vmn1r26 | 3 | 120 | 100 | inactive |
| 2610318N02Rik | 1 | 27.2 | 26.6 | inactive |
| 2610318N02Rik | 2 | 69.5 | 60.3 | inactive |
| 2610318N02Rik | 3 | 78.3 | 71.9 | inactive |
| Vgll4 | 1 | 72.5 | 44 | inactive |
| Vgll4 | 2 | 115 | 95.7 | inactive |
| Vgll4 | 3 | 77.9 | 84.8 | inactive |
| Dnmt3l | 1 | 119 | 103 | inactive |
| Dnmt3l | 2 | 60.9 | 63.6 | inactive |
| Dnmt3l | 3 | 72.8 | 58 | inactive |
| Scgb2b2 | 1 | 60 | 66.5 | inactive |
| Scgb2b2 | 2 | 62.6 | 55.9 | inactive |
| Scgb2b2 | 3 | 63.7 | 60.5 | inactive |
| Or10ag56 | 1 | 126 | 91 | active |
| Or10ag56 | 2 | 34.7 | 68.8 | inactive |
| Or10ag56 | 3 | 101 | 76.4 | inactive |
| Copb2 | 1 | 61.3 | 39.2 | inactive |
| Copb2 | 2 | 36.9 | 11 | inactive |
| Copb2 | 3 | 97.4 | 76.3 | inactive |
| Plekhm3 | 1 | 53.8 | 62.9 | inactive |
| Plekhm3 | 2 | 63.4 | 41.5 | inactive |
| Plekhm3 | 3 | 75.8 | 92.7 | inactive |

Continued, starting with the last 8 of the part before.
| gene | reagent no. | GFP, % of control | viability (ATP), % of control | call |
| --- | --- | --- | --- | --- |
| Or10ag56 | 2 | 34.7 | 68.8 | inactive |
| Or10ag56 | 3 | 101 | 76.4 | inactive |
| Copb2 | 1 | 61.3 | 39.2 | inactive |
| Copb2 | 2 | 36.9 | 11 | inactive |
| Copb2 | 3 | 97.4 | 76.3 | inactive |
| Plekhm3 | 1 | 53.8 | 62.9 | inactive |
| Plekhm3 | 2 | 63.4 | 41.5 | inactive |
| Plekhm3 | 3 | 75.8 | 92.7 | inactive |
| Angptl3 | 1 | 95.4 | 84.8 | inactive |
| Angptl3 | 2 | 105 | 112 | inactive |
| Or9i14 | 1 | 108 | 65.1 | inactive |
| Or9i14 | 2 | 83.6 | 92.2 | inactive |
| Or9i14 | 3 | 57.3 | 53.4 | inactive |
| Tbc1d24 | 1 | 122 | 72.8 | active |
| Tbc1d24 | 2 | 90.2 | 63.5 | inactive |
| Tbc1d24 | 3 | 46 | 60.6 | inactive |
| Upp1 | 1 | 94.6 | 99.8 | inactive |
| Upp1 | 2 | 75.6 | 195 | inactive |
| Upp1 | 3 | 90.4 | 109 | inactive |
| Arrdc2 | 1 | 74.6 | 74.9 | inactive |
| Arrdc2 | 2 | 94.4 | 80.4 | inactive |
| Arrdc2 | 3 | 251 | 100 | active |
| Foxred2 | 1 | 366 | 109 | active |
| Foxred2 | 2 | 65.1 | 48.8 | inactive |
| Foxred2 | 3 | 81.2 | 81 | inactive |
| Oxsm | 1 | 219 | 149 | active |
| Oxsm | 2 | 52.2 | 114 | inactive |
| Oxsm | 3 | 75.4 | 125 | inactive |
